Values from PubChem BioAssay AID1224830 (NIAID, 2016).
Purpose: 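Genes whose knock-down alters the TNF-alpha reporter response to LPS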 (primary screen). Cells: human THP-1 monocytic leukaemia cells, TNF dual-luciferase reporter clone, PMA-differentiated to macrophage-like cells. Reagent: siRNA pool against human genes, 50 nM. Timing: LPS for 4 h, given about 3 days after siRNA transfection. Conditions: bacterial LPS (TLR4 ligand), 10 ng/ml. Read-out: 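Ratio of firefly to renilla light, scaled to the plate median and expressed as a robust z-score per replicate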. Reading the numbers: TNF reporter robust z-score: higher = stronger TNF reporter response to LPS. Active means: 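a well is active when its z-score exceeds 2.8 or falls below -1.5; control wells carry no call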.
The deposit covers about 18,000 reagents; shown is an unselected part. In the full data, about 2,900 (16%) got an active call. 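Calls are made per well; low scores hint the gene aids the LPS response, high scores that it dampens it.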 Entries without a mark were called inactive. Repeated entries: four replicate wells of each siRNA pool. Reagent sequences are not shown.

TGFA showed TNF reporter robust z-score 0.28. After knock-down of TGFA, the record shows TNF reporter robust z-score 0.22. Against TGFA, the entry reads TNF reporter robust z-score 0.13. Against TGFA the deposit lists TNF reporter robust z-score 0.07. After knock-down of PLAC8, the screen gave TNF reporter robust z-score -0.88. Against PLAC8 the deposit lists TNF reporter robust z-score -0.92.

For PLAC8, the values are TNF reporter robust z-score -0.81. PLAC8 scored TNF reporter robust z-score -0.67. For BRF2, the values are TNF reporter robust z-score 1.39. Silencing of BRF2 came out at: TNF reporter robust z-score 2.11. After knock-down of BRF2, the screen gave TNF reporter robust z-score 3.19 (active). After knock-down of BRF2 the results were TNF reporter robust z-score 2.28.

Sorted by “TNF reporter robust z-score” (ascending): 3 of the entries above
PLAC8 | TNF reporter robust z-score = -0.81
PLAC8 | TNF reporter robust z-score = -0.67
BRF2 | TNF reporter robust z-score = 1.39

The results go on:
With knock-down of SNTB2, the screen gave TNF reporter robust z-score 0.12. SNTB2 gave TNF reporter robust z-score 1.24. Silencing of SNTB2 gave: TNF reporter robust z-score 0.67. Silencing of SNTB2 came out at: TNF reporter robust z-score 1.46. After knock-down of PROX2, the screen gave TNF reporter robust z-score -0.77. Against PROX2 the deposit lists TNF reporter robust z-score -0.51.

Silencing of PROX2 came out at: TNF reporter robust z-score -0.27. Silencing of PROX2 came out at: TNF reporter robust z-score -0.39. PCDHB5 showed TNF reporter robust z-score 0.7. PCDHB5 scored TNF reporter robust z-score 1.69. After knock-down of PCDHB5, the record shows TNF reporter robust z-score 0.99. Depletion of PCDHB5 resulted in: TNF reporter robust z-score 0.8.

After knock-down of LDOC1 the results were TNF reporter robust z-score 2.15. After knock-down of LDOC1, the screen gave TNF reporter robust z-score 0.71. Silencing of LDOC1 resulted in: TNF reporter robust z-score 1.55. With knock-down of LDOC1 the results were TNF reporter robust z-score -0.99. After knock-down of TREM2, the record shows TNF reporter robust z-score -0.64. After knock-down of TREM2, the screen gave TNF reporter robust z-score 0.07.

After knock-down of TREM2, the record shows TNF reporter robust z-score -0.31. For TREM2, the values are TNF reporter robust z-score 1.12.
